Test results from publication PMC12829148.
These are yes or no findings as the source states them, for the method shown. For part of these data: Binding seen in cells or lysates may run through a third protein. Some entries that bind do so weakly or less than the wild type.

Amino acid sequences for entries named in this document (tags omitted).
UniProt P03466: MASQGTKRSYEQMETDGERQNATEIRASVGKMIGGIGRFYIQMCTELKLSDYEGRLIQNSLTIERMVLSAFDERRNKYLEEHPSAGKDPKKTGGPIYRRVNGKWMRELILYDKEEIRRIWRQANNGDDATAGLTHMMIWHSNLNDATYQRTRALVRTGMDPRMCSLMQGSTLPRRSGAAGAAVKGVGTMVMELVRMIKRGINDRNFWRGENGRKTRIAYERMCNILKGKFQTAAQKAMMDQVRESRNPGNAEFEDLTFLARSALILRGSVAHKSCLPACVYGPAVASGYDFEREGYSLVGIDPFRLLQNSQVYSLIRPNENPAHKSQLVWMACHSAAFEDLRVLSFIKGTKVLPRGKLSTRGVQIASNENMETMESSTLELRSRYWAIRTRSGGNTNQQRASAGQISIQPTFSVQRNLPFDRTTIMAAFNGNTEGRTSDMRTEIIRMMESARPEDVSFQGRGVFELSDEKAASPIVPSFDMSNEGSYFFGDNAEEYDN
UniProt P35579: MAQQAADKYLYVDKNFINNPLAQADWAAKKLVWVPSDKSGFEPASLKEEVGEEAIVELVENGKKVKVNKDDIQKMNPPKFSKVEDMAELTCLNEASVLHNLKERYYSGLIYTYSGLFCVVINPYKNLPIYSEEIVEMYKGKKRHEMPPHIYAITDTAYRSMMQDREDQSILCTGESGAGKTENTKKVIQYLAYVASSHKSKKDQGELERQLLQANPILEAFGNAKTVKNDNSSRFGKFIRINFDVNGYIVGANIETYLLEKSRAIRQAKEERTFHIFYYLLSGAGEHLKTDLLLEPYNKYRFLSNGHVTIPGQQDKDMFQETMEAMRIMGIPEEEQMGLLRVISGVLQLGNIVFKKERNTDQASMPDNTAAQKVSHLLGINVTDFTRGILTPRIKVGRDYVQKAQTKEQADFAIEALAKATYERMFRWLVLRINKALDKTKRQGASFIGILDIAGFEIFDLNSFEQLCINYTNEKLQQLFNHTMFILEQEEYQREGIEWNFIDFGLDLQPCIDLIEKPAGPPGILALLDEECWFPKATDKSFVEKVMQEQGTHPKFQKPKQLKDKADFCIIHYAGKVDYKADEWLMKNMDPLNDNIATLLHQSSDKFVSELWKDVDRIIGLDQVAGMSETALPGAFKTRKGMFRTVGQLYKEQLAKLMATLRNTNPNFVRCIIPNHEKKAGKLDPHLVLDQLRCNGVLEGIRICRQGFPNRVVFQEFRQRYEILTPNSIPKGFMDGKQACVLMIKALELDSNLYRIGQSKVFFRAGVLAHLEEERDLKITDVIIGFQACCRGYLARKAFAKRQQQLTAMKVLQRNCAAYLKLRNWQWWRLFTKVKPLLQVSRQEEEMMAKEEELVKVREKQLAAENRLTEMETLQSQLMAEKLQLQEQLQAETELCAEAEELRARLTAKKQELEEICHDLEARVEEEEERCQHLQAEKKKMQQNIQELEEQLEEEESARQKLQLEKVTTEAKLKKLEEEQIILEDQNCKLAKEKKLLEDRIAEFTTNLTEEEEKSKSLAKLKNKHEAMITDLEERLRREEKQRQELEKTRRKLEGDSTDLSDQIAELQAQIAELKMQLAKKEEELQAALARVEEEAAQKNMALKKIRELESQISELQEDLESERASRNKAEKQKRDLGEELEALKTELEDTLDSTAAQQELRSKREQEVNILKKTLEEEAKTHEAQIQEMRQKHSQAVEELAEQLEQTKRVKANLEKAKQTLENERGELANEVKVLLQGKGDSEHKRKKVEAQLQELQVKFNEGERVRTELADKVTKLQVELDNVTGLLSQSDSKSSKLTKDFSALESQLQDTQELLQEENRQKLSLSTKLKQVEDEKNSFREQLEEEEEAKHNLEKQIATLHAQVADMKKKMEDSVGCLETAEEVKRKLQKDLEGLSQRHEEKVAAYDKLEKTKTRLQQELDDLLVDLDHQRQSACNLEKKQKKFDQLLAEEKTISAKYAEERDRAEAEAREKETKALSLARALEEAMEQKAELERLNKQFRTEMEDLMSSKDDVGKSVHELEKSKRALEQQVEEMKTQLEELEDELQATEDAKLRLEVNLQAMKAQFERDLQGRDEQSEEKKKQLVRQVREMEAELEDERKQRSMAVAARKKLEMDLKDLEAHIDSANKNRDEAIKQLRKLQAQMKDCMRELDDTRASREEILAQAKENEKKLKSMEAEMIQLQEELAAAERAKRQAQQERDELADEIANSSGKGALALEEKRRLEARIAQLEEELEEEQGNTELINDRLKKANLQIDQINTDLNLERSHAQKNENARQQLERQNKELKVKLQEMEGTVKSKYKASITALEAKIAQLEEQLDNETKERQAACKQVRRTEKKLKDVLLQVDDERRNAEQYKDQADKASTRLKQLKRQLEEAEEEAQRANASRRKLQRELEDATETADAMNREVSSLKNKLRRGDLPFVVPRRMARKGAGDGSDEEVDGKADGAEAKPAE
UniProt Q14247: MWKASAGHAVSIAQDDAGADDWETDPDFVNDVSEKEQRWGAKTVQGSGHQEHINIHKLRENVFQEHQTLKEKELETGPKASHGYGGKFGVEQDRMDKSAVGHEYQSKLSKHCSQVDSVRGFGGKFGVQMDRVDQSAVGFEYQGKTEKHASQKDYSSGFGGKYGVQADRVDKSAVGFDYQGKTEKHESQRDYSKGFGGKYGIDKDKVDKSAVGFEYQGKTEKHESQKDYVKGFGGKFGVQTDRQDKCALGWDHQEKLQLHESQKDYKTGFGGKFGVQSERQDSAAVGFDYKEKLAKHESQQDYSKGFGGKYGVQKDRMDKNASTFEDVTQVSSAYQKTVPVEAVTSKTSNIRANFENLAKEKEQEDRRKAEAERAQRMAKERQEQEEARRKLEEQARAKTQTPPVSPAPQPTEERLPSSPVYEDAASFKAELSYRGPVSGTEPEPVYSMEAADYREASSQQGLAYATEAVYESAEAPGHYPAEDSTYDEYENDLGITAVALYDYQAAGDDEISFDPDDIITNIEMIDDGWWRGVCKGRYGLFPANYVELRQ
UniProt O95425: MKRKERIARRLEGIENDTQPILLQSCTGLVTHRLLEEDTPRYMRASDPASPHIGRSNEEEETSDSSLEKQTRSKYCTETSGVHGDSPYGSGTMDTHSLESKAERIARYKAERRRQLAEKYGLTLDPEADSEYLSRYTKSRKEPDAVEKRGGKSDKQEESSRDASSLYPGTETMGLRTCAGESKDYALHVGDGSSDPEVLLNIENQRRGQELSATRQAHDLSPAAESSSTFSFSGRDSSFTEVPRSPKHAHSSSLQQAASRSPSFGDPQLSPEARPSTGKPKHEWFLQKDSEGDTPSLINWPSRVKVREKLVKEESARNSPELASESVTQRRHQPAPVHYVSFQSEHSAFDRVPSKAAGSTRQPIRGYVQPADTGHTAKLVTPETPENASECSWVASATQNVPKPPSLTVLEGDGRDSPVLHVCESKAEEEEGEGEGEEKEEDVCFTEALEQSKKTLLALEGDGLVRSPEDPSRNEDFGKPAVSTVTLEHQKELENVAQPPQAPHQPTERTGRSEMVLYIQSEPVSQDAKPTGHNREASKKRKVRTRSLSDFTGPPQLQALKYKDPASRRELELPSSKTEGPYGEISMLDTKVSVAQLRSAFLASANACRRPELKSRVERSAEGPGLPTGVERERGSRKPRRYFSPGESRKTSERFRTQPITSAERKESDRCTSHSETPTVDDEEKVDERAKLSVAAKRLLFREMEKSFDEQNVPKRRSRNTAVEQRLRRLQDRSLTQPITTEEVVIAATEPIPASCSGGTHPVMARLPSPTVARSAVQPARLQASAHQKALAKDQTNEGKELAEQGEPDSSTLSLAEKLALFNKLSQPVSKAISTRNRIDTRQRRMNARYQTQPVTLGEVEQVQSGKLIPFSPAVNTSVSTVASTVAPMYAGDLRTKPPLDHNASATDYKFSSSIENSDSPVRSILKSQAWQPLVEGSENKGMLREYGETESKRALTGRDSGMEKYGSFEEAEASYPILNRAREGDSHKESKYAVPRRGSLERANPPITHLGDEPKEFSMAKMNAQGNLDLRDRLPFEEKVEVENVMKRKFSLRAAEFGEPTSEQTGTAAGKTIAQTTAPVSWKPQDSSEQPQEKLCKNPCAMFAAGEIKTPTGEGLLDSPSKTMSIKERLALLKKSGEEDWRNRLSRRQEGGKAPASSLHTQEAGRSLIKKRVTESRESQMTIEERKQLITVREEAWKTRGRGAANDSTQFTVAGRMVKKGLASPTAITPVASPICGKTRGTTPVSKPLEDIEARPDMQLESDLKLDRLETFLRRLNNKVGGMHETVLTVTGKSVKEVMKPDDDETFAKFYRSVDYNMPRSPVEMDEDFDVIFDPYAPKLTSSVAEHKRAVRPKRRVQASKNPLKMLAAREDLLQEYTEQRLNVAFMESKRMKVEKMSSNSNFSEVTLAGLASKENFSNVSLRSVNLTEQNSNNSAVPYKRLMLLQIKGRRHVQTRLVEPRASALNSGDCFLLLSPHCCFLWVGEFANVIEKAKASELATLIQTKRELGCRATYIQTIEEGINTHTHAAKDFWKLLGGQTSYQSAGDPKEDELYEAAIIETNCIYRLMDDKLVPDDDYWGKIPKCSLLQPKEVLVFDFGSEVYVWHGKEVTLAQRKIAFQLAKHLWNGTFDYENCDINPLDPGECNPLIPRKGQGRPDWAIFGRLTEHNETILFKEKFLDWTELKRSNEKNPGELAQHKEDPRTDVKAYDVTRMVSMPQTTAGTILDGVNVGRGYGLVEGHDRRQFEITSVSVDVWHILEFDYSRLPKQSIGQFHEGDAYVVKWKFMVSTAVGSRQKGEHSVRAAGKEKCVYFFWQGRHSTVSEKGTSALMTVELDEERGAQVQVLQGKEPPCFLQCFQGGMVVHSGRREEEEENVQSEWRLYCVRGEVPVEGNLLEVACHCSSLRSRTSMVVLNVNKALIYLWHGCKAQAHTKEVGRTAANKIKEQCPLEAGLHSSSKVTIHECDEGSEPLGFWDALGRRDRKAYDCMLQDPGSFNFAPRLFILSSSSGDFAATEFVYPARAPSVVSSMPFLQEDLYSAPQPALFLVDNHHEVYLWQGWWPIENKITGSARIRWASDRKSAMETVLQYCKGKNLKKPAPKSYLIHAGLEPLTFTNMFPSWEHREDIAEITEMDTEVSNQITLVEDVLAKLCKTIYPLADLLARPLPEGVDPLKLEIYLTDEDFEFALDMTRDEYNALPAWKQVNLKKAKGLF
UniProt Q9UM54: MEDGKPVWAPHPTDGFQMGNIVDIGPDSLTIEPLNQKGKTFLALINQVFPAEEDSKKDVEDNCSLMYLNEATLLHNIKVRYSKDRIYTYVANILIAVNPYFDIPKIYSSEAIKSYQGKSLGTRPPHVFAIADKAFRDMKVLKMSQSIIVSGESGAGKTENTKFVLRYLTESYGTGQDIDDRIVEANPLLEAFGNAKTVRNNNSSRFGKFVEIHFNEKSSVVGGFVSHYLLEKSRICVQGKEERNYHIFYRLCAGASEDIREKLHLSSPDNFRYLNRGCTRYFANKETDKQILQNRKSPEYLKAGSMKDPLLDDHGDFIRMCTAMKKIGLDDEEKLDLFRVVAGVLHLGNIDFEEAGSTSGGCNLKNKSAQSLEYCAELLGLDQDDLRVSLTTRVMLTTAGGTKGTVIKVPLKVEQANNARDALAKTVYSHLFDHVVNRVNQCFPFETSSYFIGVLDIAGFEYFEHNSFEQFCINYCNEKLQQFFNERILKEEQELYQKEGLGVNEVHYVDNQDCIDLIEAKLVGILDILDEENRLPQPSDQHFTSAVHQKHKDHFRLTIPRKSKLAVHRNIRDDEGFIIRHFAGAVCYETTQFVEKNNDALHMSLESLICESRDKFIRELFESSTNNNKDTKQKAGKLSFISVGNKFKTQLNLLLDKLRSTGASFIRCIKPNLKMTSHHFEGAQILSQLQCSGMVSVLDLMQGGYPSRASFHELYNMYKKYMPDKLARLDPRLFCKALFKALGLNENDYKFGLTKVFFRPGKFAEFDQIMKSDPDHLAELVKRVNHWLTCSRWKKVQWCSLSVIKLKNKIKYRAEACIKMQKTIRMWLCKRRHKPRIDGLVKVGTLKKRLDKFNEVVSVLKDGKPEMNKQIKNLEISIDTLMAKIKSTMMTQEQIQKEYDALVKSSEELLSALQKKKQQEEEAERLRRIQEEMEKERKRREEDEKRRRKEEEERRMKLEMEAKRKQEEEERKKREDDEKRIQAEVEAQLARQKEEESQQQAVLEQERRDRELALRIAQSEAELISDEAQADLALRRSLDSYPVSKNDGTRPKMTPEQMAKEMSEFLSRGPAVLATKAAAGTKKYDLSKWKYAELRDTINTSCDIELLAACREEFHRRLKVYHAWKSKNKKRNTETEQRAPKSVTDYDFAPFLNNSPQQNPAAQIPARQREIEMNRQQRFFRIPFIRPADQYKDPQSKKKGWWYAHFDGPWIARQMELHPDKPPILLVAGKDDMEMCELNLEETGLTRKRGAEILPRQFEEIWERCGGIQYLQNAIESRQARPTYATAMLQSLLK

Assays:
[1] = molecular target: T1, TMED7 (human (endogenous in A549)) (UniProt Q9Y3B3); experiment: thermal proximity coaggregation (TPCA), scored with Tapioca
T1 sequence: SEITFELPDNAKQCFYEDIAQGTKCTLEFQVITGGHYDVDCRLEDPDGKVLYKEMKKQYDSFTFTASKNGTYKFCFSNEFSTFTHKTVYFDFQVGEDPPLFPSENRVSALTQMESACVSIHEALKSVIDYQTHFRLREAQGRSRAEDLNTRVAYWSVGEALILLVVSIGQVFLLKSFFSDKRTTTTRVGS

[2] = molecular target: viral nucleoprotein (NP) (Influenza A H1N1 A/Puerto Rico/8/1934) (UniProt P03466); experiment: as above
[3] = molecular target: ACTN1 (human (endogenous in A375 and A549)) (UniProt P12814); experiment: ion-based proteome-integrated solubility alteration (I-PISA), scored with Tapioca; A375 cells with five ZnCl2 concentrations 0-550 uM, insoluble fraction (pellet), TMT-DDA MS; pair called detected when the Tapioca score passed the cutoff 0.7; known PPIs only
[4] = molecular target: ACTN1 (human (endogenous in A375 and A549)) (UniProt P12814); experiment: thermal proximity coaggregation (TPCA), scored with Tapioca; A375 cells heated at 10 temperatures 37-55 °C, soluble fraction, TMT-DDA MS; pair called detected when the Tapioca machine-learning score passed the cutoff 0.5; known PPIs only
[5] = molecular target: ACTN1 (human (endogenous in A375 and A549)) (UniProt P12814); experiment: thermal proximity coaggregation (TPCA), scored with Tapioca
[6] = molecular target: ACTN1 (human (endogenous in A375 and A549)) (UniProt P12814); experiment: ion-based proteome-integrated solubility alteration (I-PISA), scored with Tapioca; A375 cells with a ZnCl2 gradient between 0 and 800 uM (five or ten concentrations; which data set is not told for these pairs), soluble fraction, TMT-DDA MS; pair called detected when the Tapioca score passed the data-set cutoff; known PPIs only
[7] = molecular target: MYH9 (human (endogenous in A375)) (UniProt P35579); experiment: ion-based proteome-integrated solubility alteration (I-PISA), scored with Tapioca; A375 cells with five ZnCl2 concentrations 0-550 uM, insoluble fraction (pellet), TMT-DDA MS; pair called detected when the Tapioca score passed the cutoff 0.7; known PPIs only
[8] = molecular target: MYH9 (human (endogenous in A375)) (UniProt P35579); experiment: thermal proximity coaggregation (TPCA), scored with Tapioca; A375 cells heated at 10 temperatures 37-55 °C, insoluble fraction (pellet), TMT-DDA MS; pair called detected when the Tapioca score passed the data-set cutoff; known PPIs only
[9] = molecular target: MYH9 (human (endogenous in A375)) (UniProt P35579); experiment: thermal proximity coaggregation (TPCA), scored with Tapioca; A375 cells heated at 10 temperatures 37-55 °C, soluble fraction, TMT-DDA MS; pair called detected when the Tapioca machine-learning score passed the cutoff 0.5; known PPIs only
[10] = molecular target: viral M1 protein (Influenza A H1N1 A/Puerto Rico/8/1934) (UniProt P03485); experiment: thermal proximity coaggregation (TPCA), scored with Tapioca

TWF1 (from UniProt Q12792 1-350) was tested, and the binding [1] was “binds”.

In the case of LGALS9 (from UniProt O00182 1-355), the binding [2] is reported as “binds”.

IQGAP1 (from UniProt P46940 1-1657) was tested, and the binding [3] was “binds”.

For ITGB1 (from UniProt P05556 21-798), the binding [4] was “binds”.

In the case of CTTN (from UniProt Q14247 1-550), the binding [5] is reported as “binds”.

In the case of SVIL (from UniProt O95425 1-2214), the binding [6] is reported as “binds”.

ACTN1 (from UniProt P12814 1-892) was tested, and the binding [7] was “binds”.

MYO6 (from UniProt Q9UM54 1-1294) was tested, and the binding [8] was “binds”.

TGOLN2 (from UniProt O43493 22-437) was tested, and the binding [5] was “binds”.

In the case of ACTN4 (from UniProt O43707 1-911), the binding [5] is reported as “binds” and the binding [3] is reported as “binds”.

MYH14 (from UniProt Q7Z406 1-1995) was tested, and the binding [9] was “binds”.

With PDLIM7 (from UniProt Q9NR12 1-457) the binding [6] was “binds”.

With TPM4 (from UniProt P67936 1-248) the binding [4] was “binds”.

B1: STAU2 (protein, UniProt Q9NUL3 1-570)
chain: MANPKEKTAMCLVNELARFNRVQPQYKLLNERGPAHSKMFSVQLSLGEQTWESEGSSIKKAQQAVANKALTESTLPKPVQKPPKSNVNNNPGSITPTVELNGLAMKRGEPAIYRPLDPKPFPNYRANYNFRGMYNQRYHCPVPKIFYVQLTVGNNEFFGEGKTRQAARHNAAMKALQALQNEPIPERSPQNGESGKDVDDDKDANKSEISLVFEIALKRNMPVSFEVIKESGPPHMKSFVTRVSVGEFSAEGEGNSKKLSKKRAATTVLQELKKLPPLPVVEKPKLFFKKRPKTIVKAGPEYGQGMNPISRLAQIQQAKKEKEPDYVLLSERGMPRRREFVMQVKVGNEVATGTGPNKKIAKKNAAEAMLLQLGYKASTNLQDQLEKTGENKGWSGPKPGFPEPTNNTPKGILHLSPDVYQEMEASRHKVISGTTLGYLSPKDMNQPSSSFFSISPTSNSSATIARELLMNGTSSTAEAIGLKGSSPTPPCSPVQPSKQLEYLARIQGFQAALSALKQFSEQGLDPIDGAMNIEKGSLEKQAKHLREKADNNQAPPGSIAQDCKKSNSAV
In the case of B1, the binding [10] is reported as “binds”.

B2: ZYX (protein, UniProt Q15942 1-572)
chain: MAAPRPSPAISVSVSAPAFYAPQKKFGPVVAPKPKVNPFRPGDSEPPPAPGAQRAQMGRVGEIPPPPPEDFPLPPPPLAGDGDDAEGALGGAFPPPPPPIEESFPPAPLEEEIFPSPPPPPEEEGGPEAPIPPPPQPREKVSSIDLEIDSLSSLLDDMTKNDPFKARVSSGYVPPPVATPFSSKSSTKPAAGGTAPLPPWKSPSSSQPLPQVPAPAQSQTQFHVQPQPQPKPQVQLHVQSQTQPVSLANTQPRGPPASSPAPAPKFSPVTPKFTPVASKFSPGAPGGSGSQPNQKLGHPEALSAGTGSPQPPSFTYAQQREKPRVQEKQHPVPPPAQNQNQVRSPGAPGPLTLKEVEELEQLTQQLMQDMEHPQRQNVAVNELCGRCHQPLARAQPAVRALGQLFHIACFTCHQCAQQLQGQQFYSLEGAPYCEGCYTDTLEKCNTCGEPITDRMLRATGKAYHPHCFTCVVCARPLEGTSFIVDQANRPHCVPDYHKQYAPRCSVCSEPIMPEPGRDETVRVVALDKNFHMKCYKCEDCGKPLSIEADDNGCFPLDGHVLCRKCHTARAQT
For B2, the binding [5] was “binds” and the binding [6] was “binds”.

B3: LASP1 (protein, UniProt Q14847 1-261)
chain: MNPNCARCGKIVYPTEKVNCLDKFWHKACFHCETCKMTLNMKNYKGYEKKPYCNAHYPKQSFTMVADTPENLRLKQQSELQSQVRYKEEFEKNKGKGFSVVADTPELQRIKKTQDQISNIKYHEEFEKSRMGPSGGEGMEPERRDSQDGSSYRRPLEQQQPHHIPTSAPVYQQPQQQPVAQSYGGYKEPAAPVSIQRSAPGGGGKRYRAVYDYSAADEDEVSFQDGDTIVNVQQIDDGWMYGTVERTGDTGMLPANYVEAI
For B3, the binding [5] was “binds”.
